The source of these data is PubChem BioAssay AID1487 (National Center for Advancing Translational Sciences (NCATS), 2009).

The test can be described thus: qHTS Assay for Modulators of Lamin A Splicing. As to conditions: HeLa LMNA splicing GFP/RFP minigene ratio, 48 h. An outline of the steps: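 S3 HeLa cells stably expressing lamin A-EGFP splicing minigene plus DsRed2, 600 cells/well, 48 h compound exposure at 37C. Laser-scanning cytometry; analysed as GFP (500-530 nm)/RFP (575-640 nm) total intensity ratio; 0.5% DMSO vehicle.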
(In qHTS, concentration-response curves come from the screen itself.)

Setting [1] is: measured here: GFP splicing reporter channel.
Where [2] appears, read: measured here: RFP viability control channel.

One may read the AC50 as the concentration giving half of the maximal activity seen.

The other results are listed elsewhere or left out. Further columns of the screen follow, without active or inactive calls. Most of these compounds were active or inconclusive in the main read-out, so they are no random draw. Words in brackets tell the shape of the fitted curve; partial curves, single points and poor fits give uncertain potencies.

On to `CN(Cc1ccccc1F)c1nc(-c2cccs2)nc2ccccc12`, for which the AC50 was 6.31 µM [rising, partial curve, poor fit] under setting [1] and 11.2 µM [rising, partial curve] under setting [2].
Take `CCSc1ccccc1C(=O)n1nnc2ccccc21`: the AC50 was 2.51 µM [falling, partial curve, poor fit] under setting [1] and 2.82 µM [falling, partial curve] under setting [2].
Turning to `Cn1c(N2CCOCC2)c(/C=N/OC(=O)c2ccc(F)cc2)c2ccccc21`, the AC50 by setting is: under setting [1], 3.16 µM [falling, partial curve]; under setting [2], 7.08 µM [falling, full curve].
For `C[C@@H]1NC(=O)c2cc([N+](=O)[O-])cc(I)c2OCC[C@@H](C(N)=O)NC(=O)[C@H](CCCCN)NC1=O`, the AC50 under setting [2] was 20 µM [rising, single point].
On to `O=C(c1ccccc1[N+](=O)[O-])N1CCC(Cc2ccccc2)CC1`, for which, under setting [1], the AC50 was 1.12 µM [falling, single point].
For `CC(C)CCNC(=O)CCCOc1cc(=O)n(C)c2ccccc12`, the AC50 runs as follows: under setting [1], 35.5 µM [rising, single point]; under setting [2], 22.4 µM [rising, single point].
Regarding `CCC1=NN(C(=O)c2ccc(C)cc2)C(O)(c2ccc(Br)cc2)C1` (centres undefined), the AC50 under setting [2] was 35.5 µM [rising, single point].
Still for that read-out and setting: under `COC(=O)c1[nH]c2ccccc2c1NS(=O)(=O)c1ccc(F)c(C)c1` stands 35.5 µM [rising, single point].
As for `CCOc1ccc2nc(N(Cc3cccnc3)C(=O)c3cccs3)sc2c1`, under setting [1], the AC50 is 35.5 µM [falling, partial curve, poor fit].
On to `COc1ccccc1NS(=O)(=O)c1cc(NC(=O)CCC2CCCC2)ccc1N1CCOCC1`, for which, under setting [2], the AC50 was 1 µM [rising, full curve, poor fit].
As to `CCc1ccc(NC(=O)c2ccc(OC)c([N+](=O)[O-])c2)cc1`, the AC50 under setting [2] is 35.5 µM [rising, single point].
For `O=C(Nc1nc(-c2ccc(Oc3ccccc3)cc2)cs1)C1=COCCO1`, the AC50 was 11.2 µM [rising, partial curve] under setting [1] and 14.1 µM [rising, partial curve] under setting [2].
For the compound `CCN(Cc1ccccc1)C(c1ccc(C)cc1)c1nnnn1C(C)(C)CC` (centres undefined), the AC50 by setting is: under setting [1], 14.1 µM [rising, single point]; under setting [2], 31.6 µM [rising, single point].
For the compound `CCOC(=O)CN(C(=O)CSc1nnc(-c2cccc(OC)c2)o1)c1ccc(F)cc1`, the AC50 was 7.94 µM [rising, partial curve] under setting [1] and 15.8 µM [rising, partial curve] under setting [2].
Turning to `O=C(O)CCCCCNc1ncnc2ccc(Br)cc12`, under setting [1], the AC50 is 0.0794 µM [rising, full curve, poor fit].
In the case of `O=C(Nc1nnc(C2=COCCO2)o1)c1ccc(Cl)cc1`, the AC50 under setting [2] is 11.2 µM [rising, partial curve, poor fit].
On to `COc1ccc(C)c2sc(NC(=O)c3ccc(S(=O)(=O)N4CCOCC4)cc3)nc12`, for which, under setting [2], the AC50 is 3.98 µM [falling, full curve, poor fit].
Consider `Cc1ccc(NC(=O)c2ccc(Cn3cc(Br)cn3)o2)cc1`, for which the AC50 by setting is: under setting [1], 14.1 µM [rising, partial curve]; under setting [2], 12.6 µM [rising, partial curve].
Regarding `CN[C@H]1[C@@H](O[C@@H]2[C@H](O[C@@H]3[C@@H](O)[C@@H](O)[C@@H](N=C(N)N)[C@@H](O)[C@@H]3N=C(N)N)O[C@H](C)[C@@]2(O)C=O)O[C@@H](CO)[C@@H](O)[C@H]1O`, the AC50 is, setting by setting: under setting [1], 0.00398 µM [falling, full curve]; under setting [2], 0.00891 µM [falling, full curve].
Take `N#C/C(=C/c1ccc(Sc2nc3ccccc3[nH]2)o1)c1ccccc1F`: the AC50 under setting [2] was 10 µM [rising, partial curve].
The same measure, in the same setting: for `CC(=O)c1ccc(OC2OCCOC2Oc2ccc(C(C)=O)cc2)cc1` (centres undefined) the value was 15.8 µM [rising, single point].
`CC(C)c1ccc(/C=N/Nc2cc(N3CCOCC3)nc(N3CCOCC3)n2)cc1`: the AC50 is, setting by setting: under setting [1], 5.01 µM [rising, partial curve]; under setting [2], 10 µM [rising, partial curve].
Regarding `O=C(Nc1nc(-c2ccc3c(c2)OCO3)cs1)c1ccncc1`, the AC50 reads like this: under setting [1], 8.91 µM [rising, partial curve]; under setting [2], 3.55 µM [rising, full curve].
Consider `COc1ccc(-c2csc(-c3cccnc3)n2)cc1C`, for which the AC50 under setting [2] is 0.0891 µM [falling, full curve].
Regarding `CC1=NNC(=O)/C1=C\c1cn(-c2ccccc2)nc1-c1ccc(Cl)cc1`, the AC50 under setting [1] is 3.16 µM [falling, full curve] and the AC50 under setting [2] is 3.16 µM [falling, full curve].
On to `O=[N+]([O-])c1cc(Oc2cccnc2)cc([N+](=O)[O-])c1`, for which the AC50 under setting [2] is 35.5 µM [rising, single point].
On the same count and under the same terms, for `Cc1ccc(/C=N/NC(=O)CN(Cc2ccccc2)S(=O)(=O)c2ccc3c(c2)OCCO3)cc1` the value was 35.5 µM [rising, single point]; for `O=c1oc2ccccc2c(N2CCCCC2)c1CN1CCCCC1`, 35.5 µM [rising, single point].
Turning to `COc1cccc(CNC(=O)c2sc3nc[nH]c(=O)c3c2C)c1`, the AC50 under setting [1] is 0.02 µM [falling, full curve, poor fit].
With `Cc1cc(C)cc(NC(=O)CSc2nc(N)c(NC(=O)c3cccs3)c(=O)[nH]2)c1`, the AC50 was 7.94 µM [falling, partial curve] under setting [1] and 10 µM [falling, single point] under setting [2].
On to `N#C/C(=C\c1ccco1)Sc1nc2ccccc2s1`, for which, under setting [1], the AC50 is 35.5 µM [falling, single point].
As for `N=c1ccn(Cc2ccccc2Cl)cc1`, the AC50 under setting [2] was 14.1 µM [rising, single point].
As to `CCN(CC)c1ccc(/C=C(\C#N)c2ccccn2)cc1`, the AC50 is 15.8 µM [rising, single point] under setting [1] and 31.6 µM [rising, single point] under setting [2].
`Cc1cc(N2CCOCC2)n2nc(C)c(-c3ccccc3)c2n1`: the AC50 runs as follows: under setting [1], 14.1 µM [rising, single point]; under setting [2], 11.2 µM [rising, single point].
